Test results taken from US20180169177A1, “POLYPEPTIDE SPECIFICALLY BINDING TO CD34 MOLECULE AND USE THEREOF” (Guangzhou Yidai Pharmaceutical Co., Ltd., priority 2015, published 2018).
Results are given in words; binding and its absence hold for the method and conditions named. Some results given as binding are weak or reduced against the parent protein; the word gives no strength.

Chains of the proteins cited; added tags and fusions are not shown. Residues count along the entry.
UniProt P28906, residues 32-290: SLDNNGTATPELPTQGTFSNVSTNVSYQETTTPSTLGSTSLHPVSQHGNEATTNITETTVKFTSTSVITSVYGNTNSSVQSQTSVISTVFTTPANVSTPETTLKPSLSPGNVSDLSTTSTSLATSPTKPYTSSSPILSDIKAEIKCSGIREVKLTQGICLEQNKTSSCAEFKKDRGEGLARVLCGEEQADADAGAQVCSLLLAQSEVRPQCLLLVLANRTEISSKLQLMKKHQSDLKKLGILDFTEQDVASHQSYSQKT

Biological target: CD34 molecules (purchased from PeproTech) (UniProt P28906)
Test: phage binding to CD34-coated 96-hole plate, read by spectrophotometer

Binder	binding
SSFASKKGYPFNRMCAS [monoclonal phage 17]	binds
SSLGWWGPRRDFPGRRERIYLGIPWLSLLGSGAPSPV [monoclonal phage 19]	binds
